Experimental data: publication PMC6125951
Results are given in words; binding and its absence hold for the method and conditions named. In cells and extracts the contact can be indirect. Some binding calls cover weakened binding; strength is not graded here.

The chains behind the UniProt entries cited, without tags or fusion partners.
UniProt P17844: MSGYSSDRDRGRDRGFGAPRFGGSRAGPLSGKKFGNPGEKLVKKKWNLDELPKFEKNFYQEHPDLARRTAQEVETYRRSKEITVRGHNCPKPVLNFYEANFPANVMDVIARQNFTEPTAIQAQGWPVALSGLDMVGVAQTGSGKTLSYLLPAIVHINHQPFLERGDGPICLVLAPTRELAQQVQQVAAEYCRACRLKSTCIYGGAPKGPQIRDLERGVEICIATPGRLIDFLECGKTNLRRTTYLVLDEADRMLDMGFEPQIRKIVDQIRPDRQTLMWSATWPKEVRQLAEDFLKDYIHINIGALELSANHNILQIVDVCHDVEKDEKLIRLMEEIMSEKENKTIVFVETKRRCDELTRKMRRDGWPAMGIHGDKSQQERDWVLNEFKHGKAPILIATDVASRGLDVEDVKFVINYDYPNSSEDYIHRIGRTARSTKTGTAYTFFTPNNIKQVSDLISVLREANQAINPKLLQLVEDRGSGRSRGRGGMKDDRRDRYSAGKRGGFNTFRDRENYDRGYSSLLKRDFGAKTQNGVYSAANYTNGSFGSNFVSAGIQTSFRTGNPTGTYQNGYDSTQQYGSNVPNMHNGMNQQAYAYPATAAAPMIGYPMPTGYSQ
UniProt P35222: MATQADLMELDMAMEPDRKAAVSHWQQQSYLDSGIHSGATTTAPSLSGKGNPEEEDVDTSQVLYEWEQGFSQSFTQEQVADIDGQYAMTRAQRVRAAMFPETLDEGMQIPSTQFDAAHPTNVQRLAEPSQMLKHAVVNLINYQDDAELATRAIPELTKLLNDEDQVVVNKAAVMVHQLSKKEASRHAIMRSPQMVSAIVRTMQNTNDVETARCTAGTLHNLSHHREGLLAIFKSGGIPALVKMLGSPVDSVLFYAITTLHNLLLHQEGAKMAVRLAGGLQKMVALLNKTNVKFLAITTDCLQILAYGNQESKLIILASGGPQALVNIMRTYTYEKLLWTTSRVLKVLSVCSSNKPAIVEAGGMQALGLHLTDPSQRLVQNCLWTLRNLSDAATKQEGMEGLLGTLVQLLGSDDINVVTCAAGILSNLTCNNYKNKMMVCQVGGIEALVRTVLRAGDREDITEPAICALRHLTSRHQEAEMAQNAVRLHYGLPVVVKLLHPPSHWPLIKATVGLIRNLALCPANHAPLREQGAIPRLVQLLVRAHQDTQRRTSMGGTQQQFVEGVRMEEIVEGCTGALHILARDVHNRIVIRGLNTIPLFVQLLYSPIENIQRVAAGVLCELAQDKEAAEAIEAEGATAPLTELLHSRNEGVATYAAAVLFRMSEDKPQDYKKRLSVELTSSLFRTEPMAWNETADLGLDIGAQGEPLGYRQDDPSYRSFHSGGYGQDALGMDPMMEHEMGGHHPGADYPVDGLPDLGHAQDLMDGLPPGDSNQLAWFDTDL

Biological target: DDX5 (human (endogenous in HCT116)) (UniProt P17844)
Assay: co-IP; endogenous DDX5 and β-catenin in HCT116 cells; which protein was precipitated is not told in the text shown

For β-catenin (from UniProt P35222 1-781), the binding was “binds”.
